Laboratory results: PubChem BioAssay AID1259254 (NCATS, 2017)

Aim: 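Finding genes that stop cells copying their DNA twice in one cycle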 (primary screen)
Cell system: human HCT116 colorectal cancer cells
Reagent: single siRNA against human genes
Duration: 3 days
Measurement: 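Imaged Hoechst DNA stain sorts each cell into a cycle phase by DNA amount; per plate, G2 fraction set to 0% for non-targeting and 100% for GMNN siRNA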
Direction: G2 robust z-score: higher = more G2 cells, more excess DNA replication
Hit rule: 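An siRNA counts as active if its G2 robust z-score lies at least 5 MADs above the screen median; here such calls match roughly 38% of GMNN control or more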
Shown is a random part of about 59,000 reagents. In the full data, about 1,550 (2.6%) got an active call. 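G2 share is only a proxy for re-replication; each gene was hit by three separate siRNAs, and active genes were retested.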 The numbers tell different reagents against one gene apart. Further read-outs or replicates are left out here. Reagent sequences are not shown. The record does not give: the amount of reagent.

no.	target	reagent no.	G2 robust z-score	Outcome
1	ZNF260 (zinc finger protein 260)	1	-0.618	inactive
2	ZNF260 (zinc finger protein 260)	2	1.22	inactive
3	ZNF260 (zinc finger protein 260)	3	0.578	inactive
4	CCDC63 (coiled-coil domain containing 63)	1	3.12	inactive
5	CCDC63 (coiled-coil domain containing 63)	2	-0.769	inactive
6	CCDC63 (coiled-coil domain containing 63)	3	-0.175	inactive
7	RPL10P8 (ribosomal protein L10 pseudogene 8)	1	7.36	active
8	RPL10P8 (ribosomal protein L10 pseudogene 8)	2	-0.061	inactive
9	RPL10P8 (ribosomal protein L10 pseudogene 8)	3	-0.462	inactive
10	SLC25A3	1	-0.699	inactive
11	SLC25A3	2	2.56	inactive
12	SLC25A3	3	0.413	inactive
13	NFKBID (NFKB inhibitor delta)	1	0.756	inactive
14	NFKBID (NFKB inhibitor delta)	2	2.73	inactive
15	NFKBID (NFKB inhibitor delta)	3	-0.85	inactive
16	PANK1 (pantothenate kinase 1)	1	-0.677	inactive
17	PANK1 (pantothenate kinase 1)	2	-1.33	inactive
18	PANK1 (pantothenate kinase 1)	3	1.07	inactive

The list goes on; the last 4 above are carried over.
no.	target	reagent no.	G2 robust z-score	Outcome
15	NFKBID (NFKB inhibitor delta)	3	-0.85	inactive
16	PANK1 (pantothenate kinase 1)	1	-0.677	inactive
17	PANK1 (pantothenate kinase 1)	2	-1.33	inactive
18	PANK1 (pantothenate kinase 1)	3	1.07	inactive
19	USP3 (ubiquitin specific peptidase 3)	1	4.99	inactive
20	USP3 (ubiquitin specific peptidase 3)	2	-0.801	inactive
21	USP3 (ubiquitin specific peptidase 3)	3	-1.18	inactive
22	CBY2 (chibby family member 2)	1	-0.745	inactive
23	CBY2 (chibby family member 2)	2	-0.669	inactive
24	CBY2 (chibby family member 2)	3	7	active
25	ZNF32 (zinc finger protein 32)	1	-0.861	inactive
26	ZNF32 (zinc finger protein 32)	2	-1.06	inactive
27	ZNF32 (zinc finger protein 32)	3	2.63	inactive
28	TSPAN15 (tetraspanin 15)	1	0.345	inactive
29	TSPAN15 (tetraspanin 15)	2	-1.01	inactive
30	TSPAN15 (tetraspanin 15)	3	-0.219	inactive
31	CHMP3 (charged multivesicular body protein 3)	1	1.7	inactive
32	CHMP3 (charged multivesicular body protein 3)	2	3.49	inactive
33	CHMP3 (charged multivesicular body protein 3)	3	0.425	inactive
34	RPS6KA5 (ribosomal protein S6 kinase A5)	1	14.5	active
35	RPS6KA5 (ribosomal protein S6 kinase A5)	2	-1.11	inactive
36	RPS6KA5 (ribosomal protein S6 kinase A5)	3	-0.825	inactive
37	FKBP1A (FKBP prolyl isomerase 1A)	1	0.472	inactive
38	FKBP1A (FKBP prolyl isomerase 1A)	2	5.26	active
39	FKBP1A (FKBP prolyl isomerase 1A)	3	-0.0775	inactive
40	HAO1 (hydroxyacid oxidase 1)	1	-0.478	inactive
41	HAO1 (hydroxyacid oxidase 1)	2	-0.552	inactive
42	HAO1 (hydroxyacid oxidase 1)	3	0.389	inactive
43	ZNF454 (zinc finger protein 454)	1	2.82	inactive
44	ZNF454 (zinc finger protein 454)	2	0.326	inactive
45	ZNF454 (zinc finger protein 454)	3	-0.872	inactive
46	UHRF1 (ubiquitin like with PHD and ring finger domains 1)	1	-0.608	inactive
47	UHRF1 (ubiquitin like with PHD and ring finger domains 1)	2	-1.11	inactive
48	UHRF1 (ubiquitin like with PHD and ring finger domains 1)	3	-0.528	inactive
